# Data reported in PubChem BioAssay AID540256 (National Center for Advancing Translational Sciences (NCATS), 2011).
# In all, about 300,000 compounds went through this assay and about 3,700 (1.2%) were called active. Inconclusive means that the source gave no clear call. Such entries were picked first, then a sample of the others. The call rests on the fitted dose curve; tested in HEK293 cells. Potencies beside an inconclusive call are fits to weak or partial responses and may not hold up.
# Experiment: qHTS for Inhibitors of binding or entry into cells for Lassa Virus; further: nearly all actives have a fitted effect of over 50% in size
# Details: Lassa virus pseudotype entry inhibition, cell reporter; activity change, negative = inhibition: at 37.9 µM (top of the series) unless noted
# On the % scale 0 is the no-effect control and ±100 the full control effect; potency means the concentration at half of the fitted maximal effect.
SMILES,"activity change, negative = inhibition",Potency
CCc1cnc2c(c1SCC(=O)Nc1ccc(C)cc1C)c(=O)n(C)c(=O)n2C,inactive: 17.8% [at 46.1 µM],
Cc1cc(O)c(C(C)C)cc1C1(c2cc(C(C)C)c(O)cc2C)OC(=O)c2ccccc21,,"inconclusive: 11.2 µM [inhibitor, partial curve, poor fit]"
CCOc1ccc(C2c3[nH]c4ccccc4c3CCN2CCCn2cccn2)cc1 (centres undefined),,"inconclusive: 35.5 µM [inhibitor, partial curve, poor fit]"
CN(C)C(CNc1ccc(C(F)(F)F)cn1)c1ccccc1 (centres undefined),,"inconclusive: 35.5 µM [inhibitor, single point]"
CCN(CC)S(=O)(=O)c1ccc(C(=O)NCCc2cc3c(OC)ccc(OC)c3[nH]c2=O)cc1,,"inconclusive: 15.8 µM [inhibitor, single point]"
N#C/C(=C1/CCCCCN1)c1nc2ccccc2s1,inactive: -5.39%,
COCCNC(=O)Cn1c(=O)n(CCCC(=O)NCc2ccc3c(c2)OCO3)c(=O)c2sccc21,,active: 4.47 µM
Cn1c(=O)[nH]c2cc(-c3noc(-c4ccc(F)cc4)n3)ccc21,,"inconclusive: 35.5 µM [activator, single point]"
CC(C)(C)c1ccc(C(=O)CCCN2CCC(OC(c3ccccc3)c3ccccc3)CC2)cc1,,active: 5.17 µM
COc1cccc(NC(=S)N(CCc2c(C)[nH]c3ccc(C)cc23)Cc2cccs2)c1,,"inconclusive: 20.6 µM [inhibitor, single point]"
C/C(=N/NC(=O)c1ccoc1C)c1cccc(NC(=O)C(F)(F)F)c1,,"inconclusive: 2.91 µM [activator, full curve, poor fit]"
Cn1c(N2CCN(C(c3ccccc3)c3ccccc3)CC2)nc2ccccc21,,"inconclusive: 35.5 µM [inhibitor, single point]"
CCOc1ccc(CNS(=O)(=O)c2cc(-c3cc(C)no3)ccc2C)cc1OC,inactive: 24.1% [at 46.1 µM],
O=Cc1c(N2CCN(CCO)CC2)nc2ccccn2c1=O,inactive: -2.93% [at 46.1 µM],
CSc1nnc(C(C)(C)C)c(=O)n1/N=C/c1ccc(Cl)cc1,inactive: 17.1%,
COc1ccc(-c2nc(NC(=O)c3ccc(OCC(=O)Nc4ccc(F)cc4)c(OC)c3)sc2C)cc1,,"inconclusive: 14.1 µM [inhibitor, partial curve, poor fit]"
CCOc1ccc(-c2csc(NC(=O)CSCC(=O)O)n2)c2ccccc12,inactive: -9%,
CCc1c(C)nc2cc(-c3ccc(OC)cc3)[nH]n2c1=O,inactive: 8.55%,
CC(C)N(C(=O)COC(=O)c1ccccc1C(=O)c1ccc(Cl)c([N+](=O)[O-])c1)C(C)C,,"inconclusive: 0.199 µM [inhibitor, full curve, poor fit]"
COc1ccc(Br)c(C(=O)Nc2nc3ccccc3[nH]2)c1,inactive: 4.81% [at 46.1 µM],
C[C@@]12CC(=O)NC1N(C(=O)c1cccc(C(F)(F)F)c1)C(c1ccccc1OC(=O)c1cccc(C(F)(F)F)c1)C2 (some centres undefined),,"inconclusive: 10 µM [inhibitor, partial curve, poor fit]"
O=C(CCN1C(=O)[C@@H]2Cc3ccccc3CN2C1=O)NCc1ccc(Cl)cc1,inactive: -20.9% [at 46.1 µM],

# Rewritten tab-delimited: entries from further up.
SMILES	activity change, negative = inhibition	Potency
COc1cccc(NC(=S)N(CCc2c(C)[nH]c3ccc(C)cc23)Cc2cccs2)c1		inconclusive: 20.6 µM [inhibitor, single point]
C/C(=N/NC(=O)c1ccoc1C)c1cccc(NC(=O)C(F)(F)F)c1		inconclusive: 2.91 µM [activator, full curve, poor fit]
Cn1c(N2CCN(C(c3ccccc3)c3ccccc3)CC2)nc2ccccc21		inconclusive: 35.5 µM [inhibitor, single point]

# (list continues)

SMILES,"activity change, negative = inhibition",Potency
CN(C)C(=O)c1ccc(NC(=O)c2cncc(Br)c2)cc1,,"inconclusive: 23.1 µM [activator, partial curve, poor fit]"
O=C(COc1ccccc1)Nc1ccccc1C(=O)OCc1cc(=O)n2nc(C3CC3)sc2n1,inactive: 9.94% [at 46.1 µM],
Cc1cccc(NC(=O)COC(=O)Cc2cccs2)c1C,inactive: -0.327% [at 46.1 µM],
O=C(NCCC1CCCCN1S(=O)(=O)c1ccccc1)C(=O)Nc1ccc(F)cc1 (centres undefined),,"inconclusive: 1 µM [inhibitor, partial curve, poor fit]"
CCCCN(CCCC)CC(O)CN(c1cc([N+](=O)[O-])ccc1OC)S(=O)(=O)c1ccccc1 (centres undefined),,"inconclusive: 25.1 µM [inhibitor, single point]"
O=c1c2ccccc2ncn1-c1cccc(Br)c1,,"inconclusive: 10 µM [activator, partial curve, poor fit]"
CCOC(=O)Cn1c(=O)n(-c2ccccc2OC)c2nc(-c3ccccc3C)nc(C(N)=O)c21,inactive: -13.8% [at 46.1 µM],
O=C(CNCCc1ccc(Cl)cc1)Nc1ccc(C(=O)N2CCCCC2)cc1,,"inconclusive: 35.5 µM [inhibitor, single point]"
Cc1nn(C)cc1C(=O)NNC(=S)Nc1ccccc1,,"inconclusive: 3.55 µM [activator, partial curve, poor fit]"
CCCn1nnc(NC(=O)c2cc(Br)cc(Br)c2OC)n1,,"inconclusive: 0.82 µM [activator, full curve, poor fit]"
Cc1cc(C)cc(N(CC(=O)NCc2ccccc2Cl)S(=O)(=O)c2c(C)noc2C)c1,inactive: -18.9% [at 46.1 µM],
CCc1nn2c(=O)cc(COC(=O)C(c3ccccc3)c3ccccc3)nc2s1,,"inconclusive: 3.55 µM [inhibitor, partial curve, poor fit]"
Cc1cccc(-c2nc(SCC(=O)Nc3ccc4c(c3)OCCO4)c(-c3ccccc3)[nH]2)c1,,"inconclusive: 14.1 µM [inhibitor, single point]"
COC(=O)CC1Oc2ccccc2-n2cc(-c3ccc(Cl)cc3)nc21 (centres undefined),inactive: 0.028% [at 46.1 µM],
CCCCn1c(SCC(=O)Nc2cc(C(F)(F)F)ccc2Cl)nnc1C(CC)N(C)C (centres undefined),inactive: -7.81%,
CC1=C([N+](=O)[O-])C(c2ccccc2)C2=C(N1)c1ccccc1C2=O (centres undefined),,"inconclusive: 1.41 µM [inhibitor, full curve, poor fit]"
Cc1ccc(N(C)C(=O)C2CCCN(c3ncnc4c3nc3n4CCCCC3)C2)cc1C (centres undefined),,"inconclusive: 11.2 µM [inhibitor, partial curve, poor fit]"
Cc1ccc2occ(-c3cc(-c4ccc(Cl)cc4)nc4c3COc3ccccc3-4)c(=O)c2c1,inactive: -0.838% [at 46.1 µM],
CCC(=O)N(C)CCc1cc2c(c(OC)c1/C=N/Nc1ccc(C(=O)O)cc1)OCO2,inactive: -7.31%,
CCCCc1nn2c(=O)cc(COC(=O)c3ccc(NC(=O)C4CCCCC4)cc3)nc2s1,inactive: 7.35% [at 46.1 µM],
Cc1ccc(Cn2c(=O)n(Cc3ccccc3Cl)c(=O)c3ccccc32)cc1,inactive: -20.4% [at 46.1 µM],
O=C(Nc1ccncc1)c1cccc(S(=O)(=O)N2CCc3ccccc32)c1,inactive: -16%,
